PMC10584882 (Communications Biology, 2023)
Several values for one entry are separate records, joined by “and”; a condition that tells them apart may be missing. Equal entries are not always repeated. Further values from the same series stand in other lists.

Amino acid sequences for entries named in this document (tags omitted). Residues count along the entry.
UniProt P07711, 114-333: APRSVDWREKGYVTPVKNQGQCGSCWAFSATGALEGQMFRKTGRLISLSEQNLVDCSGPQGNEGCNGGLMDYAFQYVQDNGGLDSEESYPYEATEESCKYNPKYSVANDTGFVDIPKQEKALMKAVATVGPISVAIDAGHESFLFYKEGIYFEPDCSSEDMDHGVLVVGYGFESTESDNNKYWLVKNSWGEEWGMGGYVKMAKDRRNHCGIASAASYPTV
UniProt O60911, 114-334: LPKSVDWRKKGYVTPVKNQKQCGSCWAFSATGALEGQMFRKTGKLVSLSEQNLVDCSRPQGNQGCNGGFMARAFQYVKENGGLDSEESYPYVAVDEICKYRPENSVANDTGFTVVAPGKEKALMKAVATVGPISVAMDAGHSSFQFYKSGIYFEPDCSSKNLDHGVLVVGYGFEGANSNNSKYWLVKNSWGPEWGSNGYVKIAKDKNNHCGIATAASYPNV

Assays:
CatL = biological target: T1, CatL (Homo sapiens, UniProt P07711); assay: Cathepsin inhibition test, CatL; assay type: biochemical; details: Fig. S3 panel b, single replicates
T1 construct: made in house

human CatV = biological target: T2, human CatV (Homo sapiens, UniProt O60911); assay: Cathepsin inhibition test, CatV; assay type: biochemical; details: Fig. S3 panel c, single replicates
T2 construct: made in house

[1] = inhibitor 3.572 nM, 0.003572 µM
[2] = inhibitor 11.547 nM, 0.011547 µM
[3] = inhibitor 20.833 nM, 0.020833 µM

Compound	Residual activity (Vi/V0) (CatL; inhibitor 0.010 nM, 10 pM)	Residual activity (Vi/V0) (CatL; inhibitor 0.018 nM, 18 pM)	Residual activity (Vi/V0) (CatL; inhibitor 0.032 nM, 32 pM)	Residual activity (Vi/V0) (CatL; inhibitor 0.058 nM, 58 pM)	Residual activity (Vi/V0) (CatL; inhibitor 0.105 nM, 0.000105 µM)	Residual activity (Vi/V0) (CatL; [1])	Residual activity (Vi/V0) (CatL; inhibitor 6.430 nM, 0.00643 µM)	Residual activity (Vi/V0) (CatL; [2])	Residual activity (Vi/V0) (CatL; [3])	Residual activity (Vi/V0) (CatL; inhibitor 37.500 nM, 0.0375 µM)	Residual activity (Vi/V0) (human CatV; [2])	Residual activity (Vi/V0) (human CatV; [3])	Residual activity (Vi/V0) (human CatV; inhibitor 37.500 nM, 0.0375 µM)
CC(C)C[C@H](NC(=O)OCc1ccccc1)C(=O)N[C@@H](C[C@@H]1CCNC1=O)C(O)S(=O)(=O)[O-].[Na+] (stereo partly drawn) [GC376]	1.089 and 0.8692 and 0.9179 and 0.9228 and 0.8369 and 1.086 and 1.123 and 1.046 and 1.0259 and 1.005	0.9553 and 0.9484 and 1.0727 and 1.068 and 0.9415 and 1.131 and 1.088 and 1.073 and 0.9373 and 0.8527	1.037 and 1.081 and 0.872 and 1.194 and 0.9422 and 1.08 and 1.038 and 1.012 and 0.9811 and 0.9498	0.9641 and 1.034 and 0.6771 and 0.5503 and 0.8658 and 0.999 and 0.9682 and 0.994 and 0.9336 and 0.8475	0.9847 and 0.9836 and 0.6793 and 1.048 and 0.6659 and 0.9278 and 0.8304 and 0.852 and 0.9152 and 0.8608								
CCCC[C@@H](C=O)NC(=O)[C@H](CC(C)C)NC(=O)OCc1ccccc1 [Calpeptin, reference compound]						0.2673 and 0.1573 and 0.07789 and 0.0829 and 0.0678 and 0.2658 and 0.274 and 0.3023 and 0.2407 and 0.2327	0.152 and 0.0831 and 0.04517 and 0.05425 and 0.04055 and 0.1409 and 0.1492 and 0.1695 and 0.134 and 0.1301	0.08926 and 0.05156 and 0.02533 and 0.02926 and 0.02292 and 0.07631 and 0.08599 and 0.09018 and 0.08677 and 0.08979	0.04987 and 0.02764 and 0.01362 and 0.01575 and 0.01309 and 0.03382 and 0.0383 and 0.04074 and 0.04802 and 0.04395	0.02466 and 0.01627 and 0.006646 and 0.007283 and 0.007039 and 0.01136 and 0.01135 and 0.01282 and 0.02318 and 0.02103	0.007708 and 0.004048 and 0.004391 and 0.0067	0.001343 and -0.0003071 and -0.009431 and 0.0008856 and -0.01566 and -0.0003115 and 0.002893 and 0.00231	0.0003966 and -0.001731 and -0.01716 and -0.005778 and -0.01402 and 0.0005488 and 0.0007574 and -0.0002626
CCCC[C@H](NC(=O)[C@H](CC(C)C)NC(=O)OCc1ccccc1)C(O)S(=O)(=O)[O-].[Na+] (stereo partly drawn) [S-Calpeptin]						0.1889 and 0.1126 and 0.0816 and 0.08564 and 0.07888 and 0.0994 and 0.09654 and 0.1053 and 0.1351 and 0.192	0.09023 and 0.06878 and 0.04852 and 0.04603 and 0.04406 and 0.1447 and 0.1542 and 0.1761 and 0.07136 and 0.1053	0.04311 and 0.03488 and 0.01135 and 0.02572 and 0.02465 and 0.07778 and 0.08512 and 0.08561 and 0.03388 and 0.04663	0.02055 and 0.02241 and 0.01478 and 0.0143 and 0.01359 and 0.03507 and 0.03462 and 0.03799 and 0.01516 and 0.02508	0.007548 and 0.01281 and 0.01038 and 0.007111 and 0.007493 and 0.01335 and 0.01353 and 0.01428 and 0.001427 and 0.007719	0.004945 and 0.003584 and 0.005378 and -0.00403	0.001195 and 0.001884 and -0.002638 and -0.002918 and -0.001742 and 0.001358 and 0.001548 and -0.0005112	0.0004098 and 0.001527 and -0.005425 and -0.003547 and -0.002661 and 0.000704 and -4.377e-6 and -0.001086
